The source of these data is the supplement of paper PMC6411743.

The chains behind the UniProt entries cited, without tags or fusion partners. Where a name states a change or a piece, a line headed by the entry shows the natural chain unless it says otherwise.
UniProt Q8N490: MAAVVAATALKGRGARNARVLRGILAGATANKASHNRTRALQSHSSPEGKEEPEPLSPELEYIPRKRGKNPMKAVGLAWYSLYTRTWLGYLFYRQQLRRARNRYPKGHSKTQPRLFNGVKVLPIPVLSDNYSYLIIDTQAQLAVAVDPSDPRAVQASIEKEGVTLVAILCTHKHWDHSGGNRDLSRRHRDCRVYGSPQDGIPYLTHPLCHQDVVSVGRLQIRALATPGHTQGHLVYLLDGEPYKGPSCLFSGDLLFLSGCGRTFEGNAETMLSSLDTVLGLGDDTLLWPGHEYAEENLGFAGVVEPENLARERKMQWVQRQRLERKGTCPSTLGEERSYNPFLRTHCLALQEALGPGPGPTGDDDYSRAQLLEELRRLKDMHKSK
UniProt Q8N697: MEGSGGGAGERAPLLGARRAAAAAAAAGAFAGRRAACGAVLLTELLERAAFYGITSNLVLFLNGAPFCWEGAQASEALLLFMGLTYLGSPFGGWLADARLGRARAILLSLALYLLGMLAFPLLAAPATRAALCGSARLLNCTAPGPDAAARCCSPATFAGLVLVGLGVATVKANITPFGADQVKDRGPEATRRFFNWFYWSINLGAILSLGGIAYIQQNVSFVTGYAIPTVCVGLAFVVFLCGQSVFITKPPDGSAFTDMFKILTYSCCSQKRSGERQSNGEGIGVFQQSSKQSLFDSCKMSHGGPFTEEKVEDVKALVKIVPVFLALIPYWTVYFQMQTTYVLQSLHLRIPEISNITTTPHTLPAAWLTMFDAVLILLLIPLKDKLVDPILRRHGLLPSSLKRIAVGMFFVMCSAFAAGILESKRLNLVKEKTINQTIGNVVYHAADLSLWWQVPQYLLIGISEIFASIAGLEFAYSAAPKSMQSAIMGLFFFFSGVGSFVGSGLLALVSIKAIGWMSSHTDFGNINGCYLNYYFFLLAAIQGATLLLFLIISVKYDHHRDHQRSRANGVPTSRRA
UniProt Q8NEL9: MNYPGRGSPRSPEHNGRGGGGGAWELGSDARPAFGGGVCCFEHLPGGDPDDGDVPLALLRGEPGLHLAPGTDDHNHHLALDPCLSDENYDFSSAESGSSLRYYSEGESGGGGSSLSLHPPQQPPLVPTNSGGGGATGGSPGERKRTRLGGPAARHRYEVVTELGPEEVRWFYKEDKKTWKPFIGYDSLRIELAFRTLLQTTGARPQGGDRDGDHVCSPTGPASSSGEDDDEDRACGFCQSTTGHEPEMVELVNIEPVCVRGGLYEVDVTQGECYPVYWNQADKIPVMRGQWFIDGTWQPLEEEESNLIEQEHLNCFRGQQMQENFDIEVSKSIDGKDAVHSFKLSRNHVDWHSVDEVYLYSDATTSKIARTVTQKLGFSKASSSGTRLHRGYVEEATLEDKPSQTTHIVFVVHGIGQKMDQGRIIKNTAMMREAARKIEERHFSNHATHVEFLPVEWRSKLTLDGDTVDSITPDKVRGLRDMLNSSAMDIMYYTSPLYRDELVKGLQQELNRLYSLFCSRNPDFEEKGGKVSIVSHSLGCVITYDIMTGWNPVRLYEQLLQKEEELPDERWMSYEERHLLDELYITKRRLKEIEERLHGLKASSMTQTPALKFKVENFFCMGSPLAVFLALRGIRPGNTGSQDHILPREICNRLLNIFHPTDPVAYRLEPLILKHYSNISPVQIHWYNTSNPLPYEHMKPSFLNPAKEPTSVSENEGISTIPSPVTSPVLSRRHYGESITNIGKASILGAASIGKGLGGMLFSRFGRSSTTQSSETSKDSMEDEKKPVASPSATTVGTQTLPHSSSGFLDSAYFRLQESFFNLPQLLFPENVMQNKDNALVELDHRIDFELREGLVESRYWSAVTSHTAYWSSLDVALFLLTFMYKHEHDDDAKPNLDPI
UniProt Q8N163, whole entry: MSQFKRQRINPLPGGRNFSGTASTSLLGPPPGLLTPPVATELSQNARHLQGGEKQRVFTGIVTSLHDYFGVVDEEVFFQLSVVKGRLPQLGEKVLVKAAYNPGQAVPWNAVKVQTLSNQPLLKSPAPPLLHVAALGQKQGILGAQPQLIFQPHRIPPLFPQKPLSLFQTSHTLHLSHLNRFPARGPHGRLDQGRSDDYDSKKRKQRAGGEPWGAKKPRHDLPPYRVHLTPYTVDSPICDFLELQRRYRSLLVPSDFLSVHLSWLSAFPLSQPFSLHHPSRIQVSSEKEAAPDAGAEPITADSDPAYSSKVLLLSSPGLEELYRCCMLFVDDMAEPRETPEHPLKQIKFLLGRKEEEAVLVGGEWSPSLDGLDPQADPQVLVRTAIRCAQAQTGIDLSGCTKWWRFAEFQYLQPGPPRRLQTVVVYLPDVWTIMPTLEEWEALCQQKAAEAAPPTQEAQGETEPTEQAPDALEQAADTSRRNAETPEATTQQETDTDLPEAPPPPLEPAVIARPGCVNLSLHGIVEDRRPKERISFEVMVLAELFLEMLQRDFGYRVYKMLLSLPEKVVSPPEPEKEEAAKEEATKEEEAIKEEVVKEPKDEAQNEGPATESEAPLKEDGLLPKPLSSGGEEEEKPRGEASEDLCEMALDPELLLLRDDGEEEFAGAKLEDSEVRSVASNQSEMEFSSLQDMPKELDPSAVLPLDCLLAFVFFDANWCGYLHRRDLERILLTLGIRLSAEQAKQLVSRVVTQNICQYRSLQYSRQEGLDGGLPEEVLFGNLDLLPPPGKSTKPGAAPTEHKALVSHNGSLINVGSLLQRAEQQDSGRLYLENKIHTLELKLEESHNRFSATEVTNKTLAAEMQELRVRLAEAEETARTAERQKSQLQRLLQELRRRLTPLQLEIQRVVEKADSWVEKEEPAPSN
UniProt Q8N4Q0: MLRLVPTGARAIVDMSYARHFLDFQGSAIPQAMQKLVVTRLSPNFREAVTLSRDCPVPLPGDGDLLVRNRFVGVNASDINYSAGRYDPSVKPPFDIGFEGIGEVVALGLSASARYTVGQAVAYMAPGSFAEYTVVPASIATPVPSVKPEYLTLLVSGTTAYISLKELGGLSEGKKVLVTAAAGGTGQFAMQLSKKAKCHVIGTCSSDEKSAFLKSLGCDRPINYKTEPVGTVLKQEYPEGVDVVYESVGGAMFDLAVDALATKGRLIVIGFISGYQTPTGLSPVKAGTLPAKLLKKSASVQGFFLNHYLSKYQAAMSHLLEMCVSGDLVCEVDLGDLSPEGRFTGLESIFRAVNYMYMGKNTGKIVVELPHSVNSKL
UniProt Q8N0X7: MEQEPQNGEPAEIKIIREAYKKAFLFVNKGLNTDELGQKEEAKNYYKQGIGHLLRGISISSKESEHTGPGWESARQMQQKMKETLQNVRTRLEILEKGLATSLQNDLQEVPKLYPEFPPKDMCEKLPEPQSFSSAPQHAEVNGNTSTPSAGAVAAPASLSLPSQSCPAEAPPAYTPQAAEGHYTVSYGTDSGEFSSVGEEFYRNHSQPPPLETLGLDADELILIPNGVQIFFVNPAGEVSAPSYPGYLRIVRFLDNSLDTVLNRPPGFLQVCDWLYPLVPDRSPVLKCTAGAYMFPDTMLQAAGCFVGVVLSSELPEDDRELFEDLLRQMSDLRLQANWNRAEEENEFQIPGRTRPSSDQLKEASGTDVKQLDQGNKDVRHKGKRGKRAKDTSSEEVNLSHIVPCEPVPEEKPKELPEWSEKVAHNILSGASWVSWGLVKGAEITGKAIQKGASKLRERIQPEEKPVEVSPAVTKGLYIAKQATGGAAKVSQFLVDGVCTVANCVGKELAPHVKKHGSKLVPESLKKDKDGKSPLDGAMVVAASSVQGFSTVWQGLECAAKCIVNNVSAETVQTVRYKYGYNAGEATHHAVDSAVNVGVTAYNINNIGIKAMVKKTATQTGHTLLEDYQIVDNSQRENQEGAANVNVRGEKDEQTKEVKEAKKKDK
UniProt Q8NHM5: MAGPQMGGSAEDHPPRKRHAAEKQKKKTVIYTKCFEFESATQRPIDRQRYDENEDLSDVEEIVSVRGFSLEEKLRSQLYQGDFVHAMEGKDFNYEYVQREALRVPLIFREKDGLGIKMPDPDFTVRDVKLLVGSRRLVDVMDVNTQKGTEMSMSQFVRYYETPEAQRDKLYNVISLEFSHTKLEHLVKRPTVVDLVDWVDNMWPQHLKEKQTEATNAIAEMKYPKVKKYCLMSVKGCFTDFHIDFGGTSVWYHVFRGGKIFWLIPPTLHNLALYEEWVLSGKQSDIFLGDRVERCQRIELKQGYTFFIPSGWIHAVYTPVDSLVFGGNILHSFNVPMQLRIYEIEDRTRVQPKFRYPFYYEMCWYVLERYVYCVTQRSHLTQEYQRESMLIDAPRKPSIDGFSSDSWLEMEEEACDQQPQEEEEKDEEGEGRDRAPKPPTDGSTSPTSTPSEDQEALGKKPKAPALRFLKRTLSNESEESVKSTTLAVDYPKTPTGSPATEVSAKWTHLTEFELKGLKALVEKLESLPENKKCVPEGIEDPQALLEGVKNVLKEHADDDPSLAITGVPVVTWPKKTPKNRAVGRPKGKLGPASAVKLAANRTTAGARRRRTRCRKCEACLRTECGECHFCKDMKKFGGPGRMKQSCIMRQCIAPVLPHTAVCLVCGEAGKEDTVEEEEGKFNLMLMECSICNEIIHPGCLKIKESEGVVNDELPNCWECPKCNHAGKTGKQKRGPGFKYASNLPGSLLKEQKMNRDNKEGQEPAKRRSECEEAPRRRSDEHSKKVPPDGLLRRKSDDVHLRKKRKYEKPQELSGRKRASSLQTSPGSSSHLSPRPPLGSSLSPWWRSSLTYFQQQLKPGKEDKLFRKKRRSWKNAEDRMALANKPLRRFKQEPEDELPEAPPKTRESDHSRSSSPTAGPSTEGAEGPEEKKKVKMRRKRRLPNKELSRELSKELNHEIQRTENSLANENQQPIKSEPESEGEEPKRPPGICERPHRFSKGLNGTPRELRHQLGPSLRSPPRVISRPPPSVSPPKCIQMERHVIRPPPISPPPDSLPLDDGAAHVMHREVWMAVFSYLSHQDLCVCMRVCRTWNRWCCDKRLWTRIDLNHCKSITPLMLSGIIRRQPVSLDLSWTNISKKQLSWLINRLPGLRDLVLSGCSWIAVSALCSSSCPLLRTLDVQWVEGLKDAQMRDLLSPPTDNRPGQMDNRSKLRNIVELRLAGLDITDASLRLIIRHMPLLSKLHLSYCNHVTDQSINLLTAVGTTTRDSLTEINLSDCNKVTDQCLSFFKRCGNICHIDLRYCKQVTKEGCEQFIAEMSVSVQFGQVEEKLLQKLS
UniProt Q8IZ21: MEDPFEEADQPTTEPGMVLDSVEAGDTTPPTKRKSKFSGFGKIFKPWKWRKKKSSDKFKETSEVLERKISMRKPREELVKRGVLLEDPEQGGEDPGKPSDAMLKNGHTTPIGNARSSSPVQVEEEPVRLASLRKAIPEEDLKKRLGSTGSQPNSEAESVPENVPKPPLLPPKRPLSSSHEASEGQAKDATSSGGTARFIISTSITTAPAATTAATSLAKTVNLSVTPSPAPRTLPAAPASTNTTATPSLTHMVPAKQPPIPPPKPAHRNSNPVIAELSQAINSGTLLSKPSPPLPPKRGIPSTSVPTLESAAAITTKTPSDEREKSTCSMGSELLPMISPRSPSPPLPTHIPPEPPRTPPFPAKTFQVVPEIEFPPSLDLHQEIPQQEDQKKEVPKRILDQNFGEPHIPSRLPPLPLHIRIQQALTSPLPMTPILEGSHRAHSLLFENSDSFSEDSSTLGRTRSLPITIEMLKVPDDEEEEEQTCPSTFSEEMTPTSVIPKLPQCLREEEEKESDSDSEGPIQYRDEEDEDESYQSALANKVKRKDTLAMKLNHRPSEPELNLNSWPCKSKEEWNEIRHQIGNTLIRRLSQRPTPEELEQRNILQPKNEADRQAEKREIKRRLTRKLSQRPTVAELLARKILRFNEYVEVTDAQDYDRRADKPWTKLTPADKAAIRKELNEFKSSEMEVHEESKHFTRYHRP
UniProt Q8NFW8: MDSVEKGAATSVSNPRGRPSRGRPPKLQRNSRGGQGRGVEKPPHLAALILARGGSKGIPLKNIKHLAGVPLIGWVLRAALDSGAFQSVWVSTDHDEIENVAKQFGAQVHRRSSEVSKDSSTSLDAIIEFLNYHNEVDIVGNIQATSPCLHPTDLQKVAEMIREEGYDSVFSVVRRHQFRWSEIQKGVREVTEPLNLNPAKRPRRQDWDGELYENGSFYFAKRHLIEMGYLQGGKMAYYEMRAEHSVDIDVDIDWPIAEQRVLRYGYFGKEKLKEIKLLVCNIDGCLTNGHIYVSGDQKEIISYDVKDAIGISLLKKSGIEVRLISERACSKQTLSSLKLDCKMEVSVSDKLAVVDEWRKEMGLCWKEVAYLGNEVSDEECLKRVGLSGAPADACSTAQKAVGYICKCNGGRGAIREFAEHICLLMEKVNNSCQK

Compound in this experiment: Nc1ncnc2c1ncn2[C@@H]1O[C@H](COP(=O)(O)OP(=O)(O)OP(=O)(O)O)[C@@H](O)[C@H]1O [adenosine triphosphate]
Nature of the experiment: NP40-soluble protein abundance relative to vehicle (solubility fold change) (ratio); higher = more soluble protein in presence of ATP. Summed up: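 Eight concentrations, 0.1 to 10 mM, were tested on Jurkat crude lysate for 10 min at room temperature and then 3 min at 37 °C, in three independent experiments. The lysate was solubilised with 0.8% NP40 and benzonase, ultracentrifuged, and the supernatant TMT-labelled for LC-MS/MS. Each value is the fold change against the detergent-processed vehicle in its own replicate, from vsn-normalised intensities.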

± gives the standard deviation of the averaged measurements. Only a part is listed here, and it is no random draw.

Consider GDAP1 (UniProt Q8TB36), for which the NP40-soluble protein abundance amounted to 0.964 ± 0.04 (concentration: 1mM); 0.966 ± 0.065 (concentration: 2mM); 0.958 ± 0.037 (concentration: 4mM); 0.987 ± 0.052 (concentration: 6mM); 0.968 ± 0.065 (concentration: 8mM); 0.962 ± 0.06 (concentration: 10mM).
Turning to UniProt Q8N490 and related entries, the NP40-soluble protein abundance is, setting by setting: (concentration: 1mM) 0.949 ± 0.044; (concentration: 2mM) 0.982 ± 0.1; (concentration: 4mM) 0.962 ± 0.098; (concentration: 6mM) 0.998 ± 0.077; (concentration: 8mM) 0.988 ± 0.12; (concentration: 10mM) 1.01 ± 0.17.
As for UniProt Q8NBJ4 and related entries, the NP40-soluble protein abundance was 0.892 ± 0.1 (concentration: 1mM); 0.921 ± 0.041 (concentration: 2mM); 0.99 ± 0.051 (concentration: 4mM); 0.964 ± 0.11 (concentration: 6mM); 0.893 ± 0.062 (concentration: 8mM); 0.839 ± 0.084 (concentration: 10mM).
On to SLC15A4 (UniProt Q8N697), for which the NP40-soluble protein abundance runs as follows: (concentration: 1mM) 0.935 ± 0.084; (concentration: 2mM) 0.97 ± 0.16; (concentration: 4mM) 0.938 ± 0.1; (concentration: 6mM) 0.971 ± 0.11; (concentration: 8mM) 0.934 ± 0.082; (concentration: 10mM) 0.94 ± 0.067.
DDHD1 (UniProt Q8NEL9): the NP40-soluble protein abundance was found to be 1.01 ± 0.027 (concentration: 1mM); 1.036 ± 0.0039 (concentration: 2mM); 1.05 ± 0.016 (concentration: 4mM); 0.984 ± 0.037 (concentration: 6mM); 1.04 ± 0.027 (concentration: 8mM); 1.04 ± 0.016 (concentration: 10mM).
On to UniProt Q8NEZ4 and related entries, for which the NP40-soluble protein abundance reads like this: (concentration: 1mM) 0.984 ± 0.037; (concentration: 2mM) 0.973 ± 0.07; (concentration: 4mM) 0.991 ± 0.018; (concentration: 6mM) 0.958 ± 0.025; (concentration: 8mM) 0.986 ± 0.067; (concentration: 10mM) 1.04 ± 0.057.
Take UniProt Q8N163: the NP40-soluble protein abundance by setting is: (concentration: 1mM) 0.974 ± 0.029; (concentration: 2mM) 0.893 ± 0.072; (concentration: 4mM) 0.854 ± 0.065; (concentration: 6mM) 0.893 ± 0.2; (concentration: 8mM) 0.902 ± 0.12; (concentration: 10mM) 0.872 ± 0.1.
With CXorf38 (UniProt Q8TB03), the NP40-soluble protein abundance runs as follows: (concentration: 1mM) 0.97 ± 0.035; (concentration: 2mM) 0.968 ± 0.015; (concentration: 4mM) 0.97 ± 0.018; (concentration: 6mM) 0.94 ± 0.047; (concentration: 8mM) 0.929 ± 0.038; (concentration: 10mM) 0.947 ± 0.032.
As to UniProt Q8NDI1-2|Q8NDI1-3|Q8NDI1, the NP40-soluble protein abundance (concentration: 1mM) was 0.969 ± 0.015; the NP40-soluble protein abundance (concentration: 2mM) worked out at 0.951 ± 0.032; the NP40-soluble protein abundance (concentration: 4mM) came out at 0.911 ± 0.041; the NP40-soluble protein abundance (concentration: 6mM) was determined as 0.964 ± 0.033; the NP40-soluble protein abundance (concentration: 8mM) stood at 0.91 ± 0.056; the NP40-soluble protein abundance (concentration: 10mM) came to 0.914 ± 0.065.
Take ZADH2 (UniProt Q8N4Q0): the NP40-soluble protein abundance turned out to be 0.997 ± 0.026 (concentration: 1mM); 0.994 ± 0.028 (concentration: 2mM); 0.964 ± 0.026 (concentration: 4mM); 0.959 ± 0.065 (concentration: 6mM); 0.939 ± 0.017 (concentration: 8mM); 0.965 ± 0.038 (concentration: 10mM).
On to UniProt Q8N0X7, for which the NP40-soluble protein abundance (concentration: 1mM) turned out to be 1.03 ± 0.041; the NP40-soluble protein abundance (concentration: 2mM) stood at 0.996 ± 0.015; the NP40-soluble protein abundance (concentration: 4mM) worked out at 0.986 ± 0.06; the NP40-soluble protein abundance (concentration: 6mM) is 1.019 ± 0.0088; the NP40-soluble protein abundance (concentration: 8mM) stood at 0.983 ± 0.021; the NP40-soluble protein abundance (concentration: 10mM) was determined as 1.01 ± 0.022.
For the target UniProt Q8NHM5 and related entries, the NP40-soluble protein abundance (concentration: 1mM) came out at 1.12 ± 0.053; the NP40-soluble protein abundance (concentration: 2mM) amounted to 1.11 ± 0.085; the NP40-soluble protein abundance (concentration: 4mM) worked out at 1.12 ± 0.1; the NP40-soluble protein abundance (concentration: 6mM) came out at 1.09 ± 0.09; the NP40-soluble protein abundance (concentration: 8mM) worked out at 1.11 ± 0.035; the NP40-soluble protein abundance (concentration: 10mM) was 1.18 ± 0.037.
For SYTL1 (UniProt Q8IYJ3), the NP40-soluble protein abundance is 1 ± 0.069 (concentration: 1mM); 1.02 ± 0.05 (concentration: 2mM); 1.03 ± 0.077 (concentration: 4mM); 1.03 ± 0.037 (concentration: 6mM); 1.01 ± 0.053 (concentration: 8mM); 1.02 ± 0.064 (concentration: 10mM).
With UniProt Q8NDV3 and related entries, the NP40-soluble protein abundance by setting is: (concentration: 1mM) 0.941 ± 0.046; (concentration: 2mM) 0.898 ± 0.046; (concentration: 4mM) 0.858 ± 0.043; (concentration: 6mM) 0.928 ± 0.058; (concentration: 8mM) 0.872 ± 0.078; (concentration: 10mM) 0.852 ± 0.034.
Take TXNDC5 (UniProt Q8NBS9): the NP40-soluble protein abundance (concentration: 1mM) was determined as 0.974 ± 0.069; the NP40-soluble protein abundance (concentration: 2mM) came to 0.977 ± 0.03; the NP40-soluble protein abundance (concentration: 4mM) was 0.951 ± 0.055; the NP40-soluble protein abundance (concentration: 6mM) was found to be 1.01 ± 0.064; the NP40-soluble protein abundance (concentration: 8mM) was 0.956 ± 0.027; the NP40-soluble protein abundance (concentration: 10mM) was 0.939 ± 0.024.
Consider UniProt Q8IZ21 and related entries, for which the NP40-soluble protein abundance was determined as 0.904 ± 0.021 (concentration: 1mM); 0.948 ± 0.021 (concentration: 2mM); 0.951 ± 0.036 (concentration: 4mM); 0.976 ± 0.029 (concentration: 6mM); 0.905 ± 0.041 (concentration: 8mM); 0.908 ± 0.076 (concentration: 10mM).
Take CMAS (UniProt Q8NFW8): the NP40-soluble protein abundance (concentration: 1mM) turned out to be 1.11 ± 0.098; the NP40-soluble protein abundance (concentration: 2mM) is 1.14 ± 0.068; the NP40-soluble protein abundance (concentration: 4mM) was 1.14 ± 0.062; the NP40-soluble protein abundance (concentration: 6mM) came to 1.18 ± 0.11; the NP40-soluble protein abundance (concentration: 8mM) was 1.26 ± 0.046; the NP40-soluble protein abundance (concentration: 10mM) worked out at 1.3 ± 0.065.
